Data taken from PubChem BioAssay AID1159506, deposited by NCATS (2015).

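Luminescence from an EWS-FLI1 target-promoter (NR0B1) reporter, set against a CMV-promoter reporter, two days after silencing single genes in TC32 Ewing sarcoma cells.
Each siRNA was applied at 20 nM.
A z-score of the log NR0B1-over-CMV signal, less the median of siRNAs with the same seed; more negative means a stronger specific loss of the NR0B1 reporter.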

The strongest results of the screen are mostly left out here.
Sequences are the guide (antisense) strand, without overhang.

{"strand": "AUAGGUACAACUUCAGUGA", "target gene": "FAM46C", "seed-corrected z-score": "0.09006"}
{"strand": "AUGGGAACAAGCAAGCUUC", "target gene": "OR5P3", "seed-corrected z-score": "-1.273"}
{"strand": "UGCUUAAUAAGGUCAGAGC", "target gene": "ZNF75A", "seed-corrected z-score": "-0.0951"}
{"strand": "UACACUAUUGGGAACACGC", "target gene": "OGT", "seed-corrected z-score": "1.19"}
{"strand": "AUUUAGAAUAUGAUCAUCU", "target gene": "ANKRD39", "seed-corrected z-score": "0.4849"}
{"strand": "UGAGAUUGUGGUAAAGUGC", "target gene": "FCAMR", "seed-corrected z-score": "0.4894"}
{"strand": "UUGGUGACCUCCACUGAGU", "target gene": "EIF3F", "seed-corrected z-score": "0.325"}
{"strand": "AUAGGAGUGGUGGAAUUGC", "target gene": "FAM155B", "seed-corrected z-score": "-1.026"}
{"strand": "AGAUGGGUAACAGCGAUGC", "target gene": "NOCT", "seed-corrected z-score": "-0.5861"}
{"strand": "AACUUGUCCAUCAAUAGGG", "target gene": "ZSWIM2", "seed-corrected z-score": "-1.983"}
{"strand": "UAUCGUUCUUCACUUUCCC", "target gene": "ZNF609", "seed-corrected z-score": "0.6362"}
{"strand": "UCCUUCACCAGUAUCGAUG", "target gene": "MYBPC3", "seed-corrected z-score": "0.3297"}
{"strand": "UUUUCCGUAAGUAUCUAUG", "target gene": "SLC9A4", "seed-corrected z-score": "-0.1298"}
{"strand": "UUCCCGUUGAGGAAAUUGU", "target gene": "FBXW10", "seed-corrected z-score": "-0.8796"}
{"strand": "UGAGUUGCACAAGAGUUGG", "target gene": "BAP1", "seed-corrected z-score": "-0.1825"}
{"strand": "AACACGAACACAUAGUUGC", "target gene": "RABAC1", "seed-corrected z-score": "0.4941"}
{"strand": "UUUACGUCCAGUCCAACUG", "target gene": "KIAA0895", "seed-corrected z-score": "0.2829"}
{"strand": "AAAAGAGCGACGGCAGUGA", "target gene": "OR9Q2", "seed-corrected z-score": "-0.6942"}
{"strand": "ACAAGGAGUACGAAUGGUC", "target gene": "THAP11", "seed-corrected z-score": "-0.0754"}
{"strand": "AUCGUCAUCGCUGUACUCG", "target gene": "CAND2", "seed-corrected z-score": "-0.7627"}
{"strand": "UACGUUGAAAGAGCCUUAC", "target gene": "FAN1", "seed-corrected z-score": "-0.9319"}
{"strand": "UCUGUGAUAAGGUUUGUAG", "target gene": "LARP1BP1", "seed-corrected z-score": "0.206"}
{"strand": "UCCUGCACUAACAAUAUGC", "target gene": "FBXW4", "seed-corrected z-score": "0.2941"}
{"strand": "AAUGAUUGAAGUCAGCUCU", "target gene": "KRTAP19-3", "seed-corrected z-score": "0.6003"}
{"strand": "UUAUUAGACAUCAUGAUAG", "target gene": "TAPT1", "seed-corrected z-score": "0.5981"}
{"strand": "UAACGUGAGUCAGUUUGCC", "target gene": "ATP1B4", "seed-corrected z-score": "-0.04257"}
{"strand": "UAAUCUUCCUGGACGCAGC", "target gene": "PSMC6", "seed-corrected z-score": "0.5023"}
{"strand": "UUAGUUGCAAGUUAUUCCC", "target gene": "CUZD1", "seed-corrected z-score": "-1.731"}
{"strand": "ACAACAUUCACCUCUUUGC", "target gene": "C1orf53", "seed-corrected z-score": "-0.1413"}
{"strand": "UAGAAUUCAGGCAUCCUCC", "target gene": "ASS1", "seed-corrected z-score": "0.02616"}